Source: article PMC9831654
These are yes or no findings as the source states them, for the method shown. Binding seen in cells or lysates may run through a third protein. Some binding calls cover weakened binding; strength is not graded here.

Protein sequences, listed by entry. Tags and fused reporters are not part of them.
UniProt P54652: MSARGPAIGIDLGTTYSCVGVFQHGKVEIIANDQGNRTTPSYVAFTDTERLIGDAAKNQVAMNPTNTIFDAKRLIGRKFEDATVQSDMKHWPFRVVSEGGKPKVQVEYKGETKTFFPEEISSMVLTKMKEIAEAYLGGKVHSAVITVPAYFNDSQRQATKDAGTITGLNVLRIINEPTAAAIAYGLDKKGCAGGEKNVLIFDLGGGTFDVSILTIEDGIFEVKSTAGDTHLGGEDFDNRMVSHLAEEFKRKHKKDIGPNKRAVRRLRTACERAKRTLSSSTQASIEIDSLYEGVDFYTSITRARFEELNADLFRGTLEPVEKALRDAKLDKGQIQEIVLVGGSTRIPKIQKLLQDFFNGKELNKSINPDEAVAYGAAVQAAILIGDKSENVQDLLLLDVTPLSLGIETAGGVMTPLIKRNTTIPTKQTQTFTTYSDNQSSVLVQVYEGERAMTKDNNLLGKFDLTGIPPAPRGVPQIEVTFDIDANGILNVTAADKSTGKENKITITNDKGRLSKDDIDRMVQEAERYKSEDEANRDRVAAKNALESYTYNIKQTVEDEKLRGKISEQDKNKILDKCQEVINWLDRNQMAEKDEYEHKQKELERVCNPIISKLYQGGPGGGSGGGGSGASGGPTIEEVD

Legend:
[1] = molecular target: USP20 (ubiquitin-specific peptidase 20), endogenous (human (endogenous in HEK-293T)) (UniProt Q9Y2K6); assay: co-IP; endogenous proteins in HEK293T lysate; IP with the indicated antibodies and protein A/G magnetic beads at 4°C, immunoblotting
[2] = molecular target: Flag-USP20 (ubiquitin-specific peptidase 20) (UniProt Q9Y2K6); assay: co-IP; Flag-USP20 and Myc-HSPA2 co-expressed in HEK-293T cells for 48 h; RIPA lysate, IP with the indicated antibodies and protein A/G magnetic beads at 4°C, immunoblotting

binding [1]	binding [2]	Substance
binds		HSPA2 (heat-shock protein family A member 2), endogenous (from UniProt P54652 1-639)
	binds	Myc-HSPA2 (heat-shock protein family A member 2) (from UniProt P54652 1-639)
